Reference: article PMC5141290
These are yes or no findings as the source states them, for the method shown. Binding seen in cells or lysates may run through a third protein. Some binding calls cover weakened binding; strength is not graded here.

Protein sequences, listed by entry. Tags and fused reporters are not part of them.
UniProt P85037: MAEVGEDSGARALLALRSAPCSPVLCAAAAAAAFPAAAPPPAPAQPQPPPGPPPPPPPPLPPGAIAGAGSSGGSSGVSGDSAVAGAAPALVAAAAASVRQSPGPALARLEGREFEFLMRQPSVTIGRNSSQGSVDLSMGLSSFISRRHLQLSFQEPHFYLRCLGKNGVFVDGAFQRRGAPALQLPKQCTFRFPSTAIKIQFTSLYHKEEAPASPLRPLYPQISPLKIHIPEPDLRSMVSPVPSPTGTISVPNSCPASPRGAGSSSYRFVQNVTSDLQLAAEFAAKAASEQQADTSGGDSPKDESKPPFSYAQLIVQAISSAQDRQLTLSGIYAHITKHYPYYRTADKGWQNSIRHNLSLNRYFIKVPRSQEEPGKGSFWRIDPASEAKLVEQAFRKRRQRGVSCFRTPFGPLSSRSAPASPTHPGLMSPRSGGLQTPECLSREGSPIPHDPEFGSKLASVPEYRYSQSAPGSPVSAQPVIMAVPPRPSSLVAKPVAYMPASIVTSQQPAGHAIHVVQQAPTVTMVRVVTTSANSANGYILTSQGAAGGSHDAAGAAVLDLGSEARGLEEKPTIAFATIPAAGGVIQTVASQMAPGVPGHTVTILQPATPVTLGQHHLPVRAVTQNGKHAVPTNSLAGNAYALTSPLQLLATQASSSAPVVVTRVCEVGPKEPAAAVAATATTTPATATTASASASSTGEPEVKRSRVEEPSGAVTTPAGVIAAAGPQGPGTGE

Target: Forkhead box k1 (FOXK1), endogenous (human (endogenous in SW480 and SW620)) (UniProt P85037)
Test: co-IP; whole-cell lysates of untransfected SW480 and SW620 cells; immunoprecipitation with anti-FOXK1 antibody (3 ug, 3 h, 4 °C, protein A-agarose), normal rabbit IgG as control; western blot with anti-FHL2 antibody

B1: four-and-a-half LIM protein 2 (FHL2), endogenous (protein, UniProt Q14192 1-279)
chain: MTERFDCHHCNESLFGKKYILREESPYCVVCFETLFANTCEECGKPIGCDCKDLSYKDRHWHEACFHCSQCRNSLVDKPFAAKEDQLLCTDCYSNEYSSKCQECKKTIMPGTRKMEYKGSSWHETCFICHRCQQPIGTKSFIPKDNQNFCVPCYEKQHAMQCVQCKKPITTGGVTYREQPWHKECFVCTACRKQLSGQRFTARDDFAYCLNCFCDLYAKKCAGCTNPISGLGGTKYISFEERQWHNDCFNCKKCSLSLVGRGFLTERDDILCPDCGKDI
For B1, which binding is on record?
Its binding is “binds”.
